Data taken from the supplement of paper PMC11006884.
The entries are a selection whose mix differs from that of the whole data set. Single values of this set are uncertain.

Sequences of proteins named here, by UniProt entry; tags and fusion partners are left off. A change or cut given only in a name is not applied to a line headed by its entry.
UniProt Q9UNW1: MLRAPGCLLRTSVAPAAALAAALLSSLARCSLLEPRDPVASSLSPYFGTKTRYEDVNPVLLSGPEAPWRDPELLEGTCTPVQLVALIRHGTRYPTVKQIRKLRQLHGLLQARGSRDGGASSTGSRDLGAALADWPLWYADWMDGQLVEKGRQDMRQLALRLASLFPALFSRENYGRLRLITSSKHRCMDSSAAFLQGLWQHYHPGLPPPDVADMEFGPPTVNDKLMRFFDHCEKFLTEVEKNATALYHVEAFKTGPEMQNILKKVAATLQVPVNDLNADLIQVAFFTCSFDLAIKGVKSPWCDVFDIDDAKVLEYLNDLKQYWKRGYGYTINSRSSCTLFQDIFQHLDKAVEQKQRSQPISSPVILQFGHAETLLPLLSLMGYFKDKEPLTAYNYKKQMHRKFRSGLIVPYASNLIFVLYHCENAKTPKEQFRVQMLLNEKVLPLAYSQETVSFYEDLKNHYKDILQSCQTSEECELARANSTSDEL
UniProt Q9UPU5: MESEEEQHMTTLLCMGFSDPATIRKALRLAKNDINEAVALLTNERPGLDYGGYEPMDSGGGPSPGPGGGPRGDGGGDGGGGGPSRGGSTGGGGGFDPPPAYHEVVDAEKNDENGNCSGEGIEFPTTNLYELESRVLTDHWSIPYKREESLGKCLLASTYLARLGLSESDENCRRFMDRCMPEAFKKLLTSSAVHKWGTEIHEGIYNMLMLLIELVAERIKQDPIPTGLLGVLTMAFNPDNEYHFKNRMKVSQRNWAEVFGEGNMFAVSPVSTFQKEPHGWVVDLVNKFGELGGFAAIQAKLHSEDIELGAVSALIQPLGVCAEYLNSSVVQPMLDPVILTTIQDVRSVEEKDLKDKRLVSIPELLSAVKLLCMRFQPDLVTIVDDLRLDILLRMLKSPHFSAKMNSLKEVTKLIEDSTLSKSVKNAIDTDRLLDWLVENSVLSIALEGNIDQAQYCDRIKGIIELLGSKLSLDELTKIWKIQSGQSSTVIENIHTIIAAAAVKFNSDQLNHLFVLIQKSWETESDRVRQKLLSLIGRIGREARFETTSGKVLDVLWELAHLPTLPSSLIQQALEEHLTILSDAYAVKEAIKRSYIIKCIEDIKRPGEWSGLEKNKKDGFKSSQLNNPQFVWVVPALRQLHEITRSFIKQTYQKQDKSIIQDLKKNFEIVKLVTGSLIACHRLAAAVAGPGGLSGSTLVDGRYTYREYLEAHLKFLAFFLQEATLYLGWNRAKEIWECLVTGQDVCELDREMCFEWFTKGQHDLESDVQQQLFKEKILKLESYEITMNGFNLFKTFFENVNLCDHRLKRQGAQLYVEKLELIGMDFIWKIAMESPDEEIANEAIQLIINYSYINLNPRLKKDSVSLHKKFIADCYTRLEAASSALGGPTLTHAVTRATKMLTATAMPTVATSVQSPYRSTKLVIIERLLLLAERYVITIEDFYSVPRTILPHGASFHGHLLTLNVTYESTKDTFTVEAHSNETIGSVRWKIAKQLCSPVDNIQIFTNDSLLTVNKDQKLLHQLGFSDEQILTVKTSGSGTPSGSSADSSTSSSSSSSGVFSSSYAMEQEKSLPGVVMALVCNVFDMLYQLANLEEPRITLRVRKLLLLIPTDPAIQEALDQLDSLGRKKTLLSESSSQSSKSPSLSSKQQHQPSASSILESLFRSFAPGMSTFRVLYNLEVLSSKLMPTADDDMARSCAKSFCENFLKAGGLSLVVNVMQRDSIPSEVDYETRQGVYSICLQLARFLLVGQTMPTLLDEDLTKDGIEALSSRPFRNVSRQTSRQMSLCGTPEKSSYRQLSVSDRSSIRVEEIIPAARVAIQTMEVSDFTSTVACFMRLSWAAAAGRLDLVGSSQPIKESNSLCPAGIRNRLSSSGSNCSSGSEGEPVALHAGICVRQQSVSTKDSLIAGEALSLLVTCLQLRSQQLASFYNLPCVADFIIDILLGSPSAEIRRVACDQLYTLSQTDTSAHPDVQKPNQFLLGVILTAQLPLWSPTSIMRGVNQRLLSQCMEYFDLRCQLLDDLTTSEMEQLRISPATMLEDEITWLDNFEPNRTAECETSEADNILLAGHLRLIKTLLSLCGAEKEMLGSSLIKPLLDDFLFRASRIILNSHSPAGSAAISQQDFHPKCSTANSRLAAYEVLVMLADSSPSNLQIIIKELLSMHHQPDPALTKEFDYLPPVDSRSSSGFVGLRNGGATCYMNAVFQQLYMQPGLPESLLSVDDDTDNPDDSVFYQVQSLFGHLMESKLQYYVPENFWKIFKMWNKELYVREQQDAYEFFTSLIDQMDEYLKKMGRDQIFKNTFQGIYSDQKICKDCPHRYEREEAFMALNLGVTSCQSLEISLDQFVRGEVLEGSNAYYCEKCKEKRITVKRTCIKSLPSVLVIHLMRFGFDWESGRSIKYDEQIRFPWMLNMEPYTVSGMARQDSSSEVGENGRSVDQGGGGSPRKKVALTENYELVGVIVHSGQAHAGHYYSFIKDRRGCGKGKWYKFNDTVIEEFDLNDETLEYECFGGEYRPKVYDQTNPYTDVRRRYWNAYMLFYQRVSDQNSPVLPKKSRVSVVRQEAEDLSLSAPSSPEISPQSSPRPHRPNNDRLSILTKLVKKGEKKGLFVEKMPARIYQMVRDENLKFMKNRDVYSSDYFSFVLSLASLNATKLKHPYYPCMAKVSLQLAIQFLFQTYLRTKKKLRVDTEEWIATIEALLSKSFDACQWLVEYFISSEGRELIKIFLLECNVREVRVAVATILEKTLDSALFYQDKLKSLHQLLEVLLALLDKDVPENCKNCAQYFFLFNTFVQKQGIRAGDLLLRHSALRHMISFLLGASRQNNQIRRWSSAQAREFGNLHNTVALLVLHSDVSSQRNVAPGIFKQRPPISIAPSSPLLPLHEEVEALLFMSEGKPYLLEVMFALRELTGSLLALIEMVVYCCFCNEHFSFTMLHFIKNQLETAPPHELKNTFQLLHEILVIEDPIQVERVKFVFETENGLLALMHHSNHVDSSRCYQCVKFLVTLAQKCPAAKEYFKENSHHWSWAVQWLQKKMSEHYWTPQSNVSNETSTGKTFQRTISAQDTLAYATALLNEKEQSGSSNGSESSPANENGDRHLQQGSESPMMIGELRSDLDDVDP
UniProt Q9UJX3, whole entry, looked up: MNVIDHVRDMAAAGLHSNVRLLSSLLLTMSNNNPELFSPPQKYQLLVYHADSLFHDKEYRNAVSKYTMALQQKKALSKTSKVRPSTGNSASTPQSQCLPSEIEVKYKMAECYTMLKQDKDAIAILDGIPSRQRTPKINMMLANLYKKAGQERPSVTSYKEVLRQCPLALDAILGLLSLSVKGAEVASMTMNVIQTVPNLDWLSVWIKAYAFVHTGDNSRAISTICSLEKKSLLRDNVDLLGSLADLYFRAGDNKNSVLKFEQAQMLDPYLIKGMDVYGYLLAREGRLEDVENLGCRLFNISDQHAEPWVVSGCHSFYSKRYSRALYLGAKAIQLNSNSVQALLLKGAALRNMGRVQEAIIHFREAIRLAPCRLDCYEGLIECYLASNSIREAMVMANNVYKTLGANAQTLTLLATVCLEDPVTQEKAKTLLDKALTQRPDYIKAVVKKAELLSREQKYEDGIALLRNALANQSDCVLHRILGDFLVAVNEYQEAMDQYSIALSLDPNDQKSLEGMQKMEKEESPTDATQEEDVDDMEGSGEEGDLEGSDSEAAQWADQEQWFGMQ
UniProt Q9UNE7: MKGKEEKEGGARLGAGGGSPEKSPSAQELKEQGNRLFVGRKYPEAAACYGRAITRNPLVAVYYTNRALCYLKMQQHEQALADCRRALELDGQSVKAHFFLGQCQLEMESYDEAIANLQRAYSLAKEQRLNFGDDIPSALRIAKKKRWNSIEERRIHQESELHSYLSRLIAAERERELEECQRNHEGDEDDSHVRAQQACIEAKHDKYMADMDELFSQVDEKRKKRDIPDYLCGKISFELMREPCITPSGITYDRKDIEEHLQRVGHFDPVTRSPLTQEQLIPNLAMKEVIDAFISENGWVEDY
UniProt Q9ULW0, whole entry, looked up: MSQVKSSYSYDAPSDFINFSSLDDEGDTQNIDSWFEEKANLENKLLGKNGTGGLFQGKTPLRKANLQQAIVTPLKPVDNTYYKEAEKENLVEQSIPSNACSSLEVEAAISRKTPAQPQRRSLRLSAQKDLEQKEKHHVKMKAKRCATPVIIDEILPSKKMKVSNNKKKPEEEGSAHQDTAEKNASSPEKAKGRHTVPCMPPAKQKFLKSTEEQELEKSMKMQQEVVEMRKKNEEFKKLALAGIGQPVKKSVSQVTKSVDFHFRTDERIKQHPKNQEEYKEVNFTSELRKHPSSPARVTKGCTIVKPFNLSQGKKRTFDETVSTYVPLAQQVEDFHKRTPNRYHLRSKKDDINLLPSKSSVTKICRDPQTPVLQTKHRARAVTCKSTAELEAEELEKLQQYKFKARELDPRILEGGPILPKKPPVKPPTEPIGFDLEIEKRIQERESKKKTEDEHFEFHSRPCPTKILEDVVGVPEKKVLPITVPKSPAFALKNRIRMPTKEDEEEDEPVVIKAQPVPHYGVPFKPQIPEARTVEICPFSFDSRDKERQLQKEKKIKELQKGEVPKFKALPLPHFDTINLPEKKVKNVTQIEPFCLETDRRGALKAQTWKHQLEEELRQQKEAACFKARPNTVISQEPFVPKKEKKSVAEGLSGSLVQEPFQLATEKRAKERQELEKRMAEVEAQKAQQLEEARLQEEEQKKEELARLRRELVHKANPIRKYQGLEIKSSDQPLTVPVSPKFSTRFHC
UniProt Q9UHW5, whole entry, looked up: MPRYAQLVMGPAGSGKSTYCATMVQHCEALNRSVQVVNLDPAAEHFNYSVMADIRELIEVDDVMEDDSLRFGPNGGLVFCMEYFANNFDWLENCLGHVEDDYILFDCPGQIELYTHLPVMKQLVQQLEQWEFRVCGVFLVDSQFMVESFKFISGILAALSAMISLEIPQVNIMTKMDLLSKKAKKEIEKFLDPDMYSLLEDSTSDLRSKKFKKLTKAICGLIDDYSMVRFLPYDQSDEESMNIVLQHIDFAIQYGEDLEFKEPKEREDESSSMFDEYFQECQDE
UniProt Q9ULG1, whole entry, looked up: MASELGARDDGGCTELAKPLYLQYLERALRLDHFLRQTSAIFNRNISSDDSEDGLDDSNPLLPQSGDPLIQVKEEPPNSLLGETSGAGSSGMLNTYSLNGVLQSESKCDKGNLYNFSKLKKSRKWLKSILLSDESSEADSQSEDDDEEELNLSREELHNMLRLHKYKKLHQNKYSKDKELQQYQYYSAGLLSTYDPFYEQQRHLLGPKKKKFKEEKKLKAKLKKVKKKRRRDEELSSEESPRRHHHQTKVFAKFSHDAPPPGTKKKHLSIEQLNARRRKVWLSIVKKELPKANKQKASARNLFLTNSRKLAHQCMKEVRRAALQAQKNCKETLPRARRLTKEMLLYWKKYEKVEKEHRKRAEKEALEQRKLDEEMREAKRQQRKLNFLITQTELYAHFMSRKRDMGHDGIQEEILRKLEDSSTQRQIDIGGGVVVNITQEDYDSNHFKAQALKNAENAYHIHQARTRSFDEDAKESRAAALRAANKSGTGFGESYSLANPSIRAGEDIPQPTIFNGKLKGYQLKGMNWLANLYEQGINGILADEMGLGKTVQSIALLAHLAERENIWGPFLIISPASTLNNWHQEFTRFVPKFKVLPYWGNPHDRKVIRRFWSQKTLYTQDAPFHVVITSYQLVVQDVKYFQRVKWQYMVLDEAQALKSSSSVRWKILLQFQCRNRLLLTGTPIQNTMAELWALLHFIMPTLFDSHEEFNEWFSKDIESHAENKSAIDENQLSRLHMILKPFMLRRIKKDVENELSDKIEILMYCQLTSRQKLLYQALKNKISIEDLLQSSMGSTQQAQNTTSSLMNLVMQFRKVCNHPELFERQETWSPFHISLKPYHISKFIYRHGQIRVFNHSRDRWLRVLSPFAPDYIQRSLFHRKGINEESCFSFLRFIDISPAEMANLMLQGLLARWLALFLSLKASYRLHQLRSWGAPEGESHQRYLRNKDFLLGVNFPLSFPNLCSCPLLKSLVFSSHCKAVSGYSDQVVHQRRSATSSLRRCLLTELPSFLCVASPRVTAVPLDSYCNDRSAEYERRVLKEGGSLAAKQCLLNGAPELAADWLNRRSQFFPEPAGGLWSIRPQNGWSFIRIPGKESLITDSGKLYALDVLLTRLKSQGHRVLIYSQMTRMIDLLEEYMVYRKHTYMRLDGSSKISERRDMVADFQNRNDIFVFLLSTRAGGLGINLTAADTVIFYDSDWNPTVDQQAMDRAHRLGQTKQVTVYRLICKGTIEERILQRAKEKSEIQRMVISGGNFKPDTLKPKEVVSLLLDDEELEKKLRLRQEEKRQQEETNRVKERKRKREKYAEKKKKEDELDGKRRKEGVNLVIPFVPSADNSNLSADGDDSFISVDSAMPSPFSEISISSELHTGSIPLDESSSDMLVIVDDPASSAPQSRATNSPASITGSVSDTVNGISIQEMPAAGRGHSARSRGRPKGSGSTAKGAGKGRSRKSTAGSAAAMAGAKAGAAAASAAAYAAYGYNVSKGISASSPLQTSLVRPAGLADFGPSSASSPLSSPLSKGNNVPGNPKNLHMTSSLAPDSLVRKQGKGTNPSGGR

compound: COC(=O)/C=C/c1ccccc1 [methyl cinnamate]; test: log2 ratio of iodoacetamide-alkyne labeling of the cysteine site, DMSO over compound (competition); higher = stronger covalent engagement of the cysteine by the compound, active = 1 or more; settings: 500 µM; treatment time 1 h; system: HEK293T cell lysate
Outline: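 After 1 h at ambient temperature with vehicle or electrophile (500 µM), HEK293T lysate (2 mg/mL) was labelled for 1 h with iodoacetamide alkyne and clicked to sCIP-TMT reagents. Pooled samples were trypsin-digested overnight at 37 °C, streptavidin-enriched, acid-eluted and analysed by Orbitrap Eclipse LC-MS/MS with FAIMS, then quantified in FragPipe over three replicates with duplicate channels. A cysteine's log2 competition ratio is its mean control-channel over mean compound-channel reporter intensity. Cysteines quantified in only one replicate were not included.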

log2 ratio of iodoacetamide-alkyne labeling, inactive:
UniProt Q9Y3I0_C122 0.0555, MINPP1 C337 (UniProt Q9UNW1) 0.59, FAF1 C260 (UniProt Q9UNN5) -0.116, USP24 C172 (UniProt Q9UPU5) 0.0685, ANAPC7 C131 (UniProt Q9UJX3) -0.039, PRPF19 C230 (UniProt Q9UMS4) 0.284, DDX20 C524 (UniProt Q9UHI6) 0.299, LNPEP C35 (UniProt Q9UIQ6) -0.117, STUB1 C199 (UniProt Q9UNE7) 0.234, TPX2 C301 (UniProt Q9ULW0) 0.514, ZNHIT2 C188 (UniProt Q9UHR6) 0.0727, GPN3 C219 (UniProt Q9UHW5) 0.383, VPS4A C403 (UniProt Q9UN37) -0.0666, STUB1 C244 (UniProt Q9UNE7) 0.567, INO80 C13 (UniProt Q9ULG1) 0.13
